Our source for the binding values is paper PMC11614281.

Protein sequences, listed by entry. Tags and fused reporters are not part of them. Residues count along the entry.
UniProt Q10589, residues 1-161: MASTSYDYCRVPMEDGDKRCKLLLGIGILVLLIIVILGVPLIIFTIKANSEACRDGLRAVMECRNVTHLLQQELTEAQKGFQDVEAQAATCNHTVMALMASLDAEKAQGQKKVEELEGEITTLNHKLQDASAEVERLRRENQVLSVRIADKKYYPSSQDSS
UniProt P20895: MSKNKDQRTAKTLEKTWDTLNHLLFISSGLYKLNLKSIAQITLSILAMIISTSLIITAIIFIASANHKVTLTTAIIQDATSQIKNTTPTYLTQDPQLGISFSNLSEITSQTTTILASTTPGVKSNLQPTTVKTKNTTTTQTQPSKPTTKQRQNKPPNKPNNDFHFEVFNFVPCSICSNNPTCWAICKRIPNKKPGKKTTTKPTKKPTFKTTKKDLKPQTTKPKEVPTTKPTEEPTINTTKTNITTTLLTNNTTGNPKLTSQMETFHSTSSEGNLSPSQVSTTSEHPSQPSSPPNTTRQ
UniProt P12568, residues 26-574: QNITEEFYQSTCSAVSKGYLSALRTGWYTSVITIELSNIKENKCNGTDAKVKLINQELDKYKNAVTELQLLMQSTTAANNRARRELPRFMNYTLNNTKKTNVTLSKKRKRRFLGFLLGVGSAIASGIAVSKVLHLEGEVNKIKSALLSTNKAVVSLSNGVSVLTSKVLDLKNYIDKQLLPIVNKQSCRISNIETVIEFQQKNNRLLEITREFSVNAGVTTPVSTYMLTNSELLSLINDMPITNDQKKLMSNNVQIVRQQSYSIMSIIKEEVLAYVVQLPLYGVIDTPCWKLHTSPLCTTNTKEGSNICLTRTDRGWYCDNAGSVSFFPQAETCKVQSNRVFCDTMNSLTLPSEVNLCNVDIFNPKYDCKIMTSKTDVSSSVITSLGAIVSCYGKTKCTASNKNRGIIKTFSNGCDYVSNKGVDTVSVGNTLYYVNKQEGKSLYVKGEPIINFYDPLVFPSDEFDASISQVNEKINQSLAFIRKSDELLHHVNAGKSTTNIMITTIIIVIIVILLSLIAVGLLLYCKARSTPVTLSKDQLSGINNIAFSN
UniProt P04543: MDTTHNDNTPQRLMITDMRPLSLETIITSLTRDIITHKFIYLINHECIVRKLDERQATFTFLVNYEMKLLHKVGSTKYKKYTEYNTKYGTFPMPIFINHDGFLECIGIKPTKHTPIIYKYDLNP

Test [1] addresses BST2 (Bone Marrow Stromal Cell Antigen 2) (human (endogenous in HEp-2)) (UniProt Q10589). Nature of the test: co-IP; HEp-2 cells infected with RSV, MOI 1, 24 h; endogenous BST2 precipitated from the lysate with anti-BST2 antibody (control: IgG) on Dynabeads protein G, overnight at 4°C; lysis buffer 50 mM Tris HCl pH 7.4, 150 mM NaCl, 0.1% SDS, 0.5% sodium deoxycholate, 1% NP40; 4 washes; PNGase F before the gel; Western blot with anti-RSV, anti-G and anti-F antibodies. Background: A western blot detects proteins with antibodies after separation by electrophoresis.

Test [2] has the same target. Description: co-IP; HEp-2 cells transfected with Flag-NS1 or Flag-NS2 alone; endogenous BST2 precipitated with mouse anti-BST2 (M15) or control IgG on Dynabeads protein G, overnight at 4°C; lysis buffer 50 mM Tris HCl pH 7.4, 150 mM NaCl, 0.1% SDS, 0.5% sodium deoxycholate, 1% NP40; blot with anti-Flag-HRP.
Test [3] has the same target. The description is as above. This is another data set of the same source.
For test [4] the target is unchanged. Description: co-IP; HEp-2 cells transfected with Flag-NS1 and HA-NS2 together; endogenous BST2 precipitated with mouse anti-BST2 (M15) or control IgG on Dynabeads protein G, overnight at 4°C; same lysis buffer; blot with anti-Flag-HRP and anti-HA-HRP.

These are yes or no findings as the source states them, for the method shown. Binding seen in cells or lysates may run through a third protein. Some results given as binding are weak or reduced against the parent protein; the word gives no strength. For some assays here: Sequences can lack the tags named with a protein.

On to “RSV G envelope protein (from UniProt P20895 1-298)”, for which the binding result in test [1] is given as “binds”.

With “RSV F envelope protein (from UniProt P12568 26-574)”, the binding entry in test [1] is “binds”.

Consider “Flag-tagged NS2 (Flag-NS2) (from UniProt P04543 1-124)”, for which the binding entry in test [2] is given as “binds weakly”.

B1: Flag-tagged NS1 (Flag-NS1) (protein, UniProt P0DOE9 1-139)
chain: MGSNSLSMIKVRLQNLFDNDEVALLKITCYTDKLIHLTNALAKAVIHTIKLNGIVFVHVITSSDICPNNNIVVKSNFTTMPVLQNGGYIWEMMELTHCSQPNGLLDDNCEIKFSKKLSDSTMTNYMNQLSELLGFDLNP
In the case of B1, the binding result in test [3] and in test [4] was “binds” each time.
